Values joined by “and” are separate entries in the source; they are usually repeats but may differ in a detail not shown here. Equal entries are not always repeated. About 13,000 (3.2%) of roughly 400,000 compounds were called active. This list was built around the results that the source calls inconclusive (neither active nor inactive); the mix of calls is not that of the screen. Calls come from the whole dose curve; as a rule, active = well fitted cell-killing curve with a large enough effect; inconclusive = small, poorly fitted or top-dose-only effect, or effect the other way; inactive = flat fitted curve, though single readings scatter. A potency beside an inconclusive call is a rough fit, not a confirmed value.
Assay: qHTS assay for MDR1-selective chemotherapeutics: Primary screen using the drug-selected MDR subline cells KB-V1; note: nearly all actives have a fitted effect of over 60% in size
Conditions: KB-V1 MDR cells viability, CellTiter-Glo, 72 h; series mostly up to 46.1 µM
Method in brief: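 Cytotoxicity via CellTiter-Glo luminescence after 72 h compound exposure at 37 degrees C. Cells: drug-selected KB-V1 line, DMEM phenol-red free plus 10% FBS. Compounds tested at multiple concentrations; normalized data fitted to concentration-effect curves.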
In the case of `COCCN1Cc2cccc(C(=O)Nc3ccc(C)cc3C)c2C1=O`, the Potency was “inactive”. In the case of `CSc1nccc(-c2nn(-c3ccc(C)cc3)ccc2=O)n1`, the Potency was active: 2.91 µM. With `Cc1ccc(NC(=O)Cn2c(=O)n(CCCCCC(=O)NCc3ccc(F)cc3)c(=O)c3sccc32)c(C)c1` the Potency was “inactive”. In the case of `CCOc1ccc(NC(=O)CN(C)C(=O)c2ccccc2CCc2ccccc2)cc1OCC`, the Potency was inconclusive: 23.1 µM [cytotoxic, single point]. For `COCc1cc(CNC(=O)C2CCC(=O)N(Cc3cccc(OC)c3)C2)[nH]n1` (stereo not drawn), the Potency was “inactive”. In the case of `Cc1cc(C)cc(Cn2c3ccc(NC(=O)NCc4ccccc4)cc3c(=O)n2C)c1`, the Potency was “inactive”. With `COC(=O)CNC(=O)C(Cc1ccccc1)NS(=O)(=O)c1ccc2c(c1)c(=O)n(C)c(=O)n2C` (stereo not drawn) the Potency was “inactive”. With `COc1ccc(CCC(=O)NO)cc1` the Potency was inconclusive: 14.6 µM [rising, partial curve]. With `Cc1ccc(NC(=O)C2CCCN2C(=O)OCc2ccccc2)cc1C` (stereo not drawn) the Potency was “inactive”. For `C=C(C)COc1ccc(-c2[nH]ncc2-c2ccc(Br)cc2)c(O)c1`, the Potency was active: 11.6 µM. For `O=C(N/N=C/C=C/c1ccccc1)c1cccnc1`, the Potency was inconclusive: 29.1 µM [cytotoxic, single point]. With `Cc1c(C=O)c2ccccc2n1CC(=O)NCc1ccccc1` the Potency was inconclusive: 18.4 µM [cytotoxic, single point]. In the case of `CCCCc1nc(SCc2ccc([N+](=O)[O-])cc2)n[nH]1`, the Potency was inconclusive: 20.6 µM [cytotoxic, single point]. For `CCc1ccc(-n2c(SCC(=O)c3ccc4c(c3)NC(=O)CO4)nc3ccccc3c2=O)cc1`, the Potency was inconclusive: 29.1 µM [cytotoxic, single point]. With `Cc1ccc2nc(CCc3nc4ccc(C)cc4[nH]3)[nH]c2c1` the Potency was inconclusive: 29.1 µM [cytotoxic, single point]. In the case of `CCCNC(=O)/C=C/c1ccc(S(=O)(=O)Nc2ccccc2OC)cc1`, the Potency was inconclusive: 10.3 µM [cytotoxic, partial curve]. With `COc1cccc(/C=N/NC(=O)C(=O)N/N=C/c2cccc(OC)c2O)c1O` the Potency was “inactive”. For `Cc1cc(-c2ccn[nH]2)c(C)s1`, the Potency was “inactive”. In the case of `Oc1c(I)cc(Cl)c2cccnc12`, the Potency was inconclusive: 10.3 µM [cytotoxic, partial curve, poor fit]. In the case of `CCCN1CCN(CCCNC(=O)CCN2C(=O)COc3ccccc32)CC1`, the Potency was “inactive”. With `CCCC12CN3CC(CCC)(CN(C1)C3c1c[nH]c3ccccc13)C2=O` (stereo not drawn) the Potency was “inactive”. With `CCOc1ccc(/C=N/O)cc1` the Potency was “inactive”. With `NC(=S)NN=C1c2ccccc2-c2c(F)c(F)c(F)c(F)c21` the Potency was inconclusive: 14.6 µM [cytotoxic, single point]. For `CC(=O)Nc1ccc(-c2ccnc3c2CC(C)(C(=O)Nc2cccc(C(F)(F)F)c2)O3)cc1` (stereo not drawn), the Potency was inconclusive: 23.1 µM [cytotoxic, partial curve, poor fit]. In the case of `CN(C)S(=O)(=O)c1cccc(C(=O)OCC(=O)Nc2ccc3c(c2)OCCO3)c1`, the Potency was inconclusive: 20.6 µM [rising, single point]. With `Cc1cc(NC(=O)C(C)SCC(=O)N(Cc2ccccc2)c2ccccc2)no1` (stereo not drawn) the Potency was active: 6.51 µM. With `CCCn1c(O)c(N=NC(=O)c2ccco2)c2ccccc21` the Potency was active: 2.59 µM. For `CCCN1C(=O)/C(=C/c2ccc(N3CCCC3)c(C)c2)NC1=S`, the Potency was inconclusive: 16.4 µM [cytotoxic, partial curve]. In the case of `COc1ccc2c(=O)cc(-c3ccncc3)oc2c1OC`, the Potency was inconclusive: 23.1 µM [cytotoxic, single point]. In the case of `NC(=O)CC(NC(=O)Cc1cccc2ccccc12)c1ccc(NCCc2ccc(F)cc2)c([N+](=O)[O-])c1` (stereo not drawn), the Potency was “inactive”. In the case of `O=[N+]([O-])c1cc(Cl)ccc1NCCNS(=O)(=O)c1ccccc1`, the Potency was inconclusive: 16.4 µM [cytotoxic, partial curve]. In the case of `O=[N+]([O-])c1ccccc1Oc1ccc(S(=O)(=O)N2CCOCC2)cc1`, the Potency was inconclusive: 4.11 µM [cytotoxic, full curve, poor fit]. With `CCOc1ccc(-c2cc(NC(=O)Cn3ncc4c3-c3ccccc3OC4)on2)cc1OCC` the Potency was inconclusive: 1.84 µM [cytotoxic, full curve]. With `CCOC(=O)C1(CCc2ccccc2)CCN(Cc2nccn2CC)CC1` the Potency was inconclusive: 13 µM [cytotoxic, partial curve]. In the case of `COc1ccc(CCNC(=O)c2cc(-c3ccccc3)nc3ccccc23)cc1OC`, the Potency was active: 23.1 µM. With `CCCCOc1ccc(C)cc1CN(CCO)CCO` the Potency was “inactive”. With `COc1ccc(Nc2nc(N)nc(CN3CCN(c4ccccn4)CC3)n2)cc1` the Potency was inconclusive: 13 µM [cytotoxic, partial curve]. With `Cc1ccc(C2(c3ccccc3)NC(=O)N(CC(=O)N3CC(=O)Nc4ccccc43)C2=O)cc1C` (stereo not drawn) the Potency was “inactive”. With `O=C1C(=Cc2ccc(F)cc2)CCc2ccccc21` the Potency was “inactive”. In the case of `CN1CCN(Cc2nc3ccccc3n2C)CC1CCO` (stereo not drawn), the Potency was inconclusive: 1.84 µM [rising, full curve]. In the case of `Cc1cc(C(=O)CSc2nc(N)cc(=O)[nH]2)c(C)n1CC1CCCO1` (stereo not drawn), the Potency was inconclusive: 4.11 µM [rising, full curve]. With `COc1ccc(N2CCN(C(CNS(=O)(=O)c3ccc4c(c3)OCCO4)c3ccco3)CC2)cc1` (stereo not drawn) the Potency was inconclusive: 2.31 µM [cytotoxic, full curve]. For `CC(=O)Oc1ccc(C2=NN(c3ccccc3)C(c3ccccc3)C2)cc1` (stereo not drawn), the Potency was inconclusive: 29.1 µM [cytotoxic, partial curve, poor fit]. In the case of `CCn1cc(C(=O)OCC(=O)Nc2cc(C)cc(C)c2)c(=O)c2ccc(C)nc21`, the Potency was inconclusive: 23.1 µM [rising, partial curve, poor fit]. With `O=C(CSC(=S)N1CCOCC1)c1cc2ccccc2oc1=O` the Potency was “inactive”. For `O=C(NCc1ccncc1)c1cccc(S(=O)(=O)Nc2ccc(F)cc2)c1`, the Potency was inconclusive: 29.1 µM [rising, single point]. With `CCCn1c(NCc2ccccc2NS(=O)(=O)c2ccc(C)cc2)nc2ccccc21` the Potency was active: 16.4 µM. For `O=S(=O)(N1CCOCC1)N1CCN(c2ccc(F)cc2)CC1`, the Potency was “inactive”. With `Cc1cccc(NC(=O)C(C)Sc2nc3ccccc3c(=O)n2CCCN2CCOCC2)c1` (stereo not drawn) the Potency was inconclusive: 16.4 µM [cytotoxic, single point]. For `CC(NC(=O)OC(C)(C)C)C(=O)NC(CCC(=O)OCc1ccccc1)C(N)=O` (stereo not drawn), the Potency was “inactive”. With `COc1ccc(/C=C(/NC(=O)c2ccc(Br)cc2)C(=O)Nc2cccc(C(=O)O)c2)cc1` the Potency was “inactive”. With `COc1ccc(C2C(C(=O)NCc3ccccn3)c3ccccc3C(=O)N2C)cc1OC` (stereo not drawn) the Potency was inconclusive: 23.1 µM [cytotoxic, single point]. In the case of `Cc1cc(C(F)(F)F)n(-c2nc(C(=O)N/N=C/c3ccc(F)cc3)cs2)n1`, the Potency was inconclusive: 18.4 µM [cytotoxic, partial curve, poor fit]. In the case of `COC(=O)C1CCN(CC(=O)Nc2ccc(OC)c(Cl)c2)CC1`, the Potency was inconclusive: 29.1 µM [rising, single point]. For `O=C(NCC1CCCO1)C(c1cccs1)N(Cc1ccccc1Cl)C(=O)c1ccc(-c2ccccc2)[nH]1` (stereo not drawn), the Potency was active: 4.11 µM. With `CCNC(=O)C1(C)CCN(Cc2cccc(C(F)(F)F)c2)C1` (stereo not drawn) the Potency was “inactive”. With `CCOc1ccc(CC(=O)Nc2nnc3n2CCS3)cc1` the Potency was inconclusive: 23.1 µM [rising, partial curve]. In the case of `CCc1nnc2c(NCc3ccccc3OC)nc3ccccc3n12`, the Potency was “inactive”. With `Cn1c2c(c(=O)n(C)c1=O)CN(CCCN1CCOCC1)CN2` the Potency was inconclusive: 16.4 µM [rising, partial curve, poor fit]. With `CCOC(=O)N1CCC(NC(=O)c2cc(S(=O)(=O)NCCc3ccccc3)ccc2F)CC1` the Potency was inconclusive: 16.4 µM [cytotoxic, partial curve]. With `CCc1cccc(NS(=O)(=O)c2csc(C(N)=O)c2)c1` the Potency was “inactive”. In the case of `CCOC(=O)N1CCN(CC(O)COCCC23CC4CC(CC(C4)C2)C3)CC1` (stereo not drawn), the Potency was “inactive”. With `CCC(C)Sc1ccc(-c2nc3cnccn3c2NC2CCCCC2)cc1` (stereo not drawn) the Potency was inconclusive: 14.6 µM [cytotoxic, partial curve] and inconclusive: 29.1 µM [cytotoxic, partial curve, poor fit]. With `O=S(=O)(NCC(c1cccnc1)N1CCN(c2ccc(F)cc2)CC1)c1ccccc1` (stereo not drawn) the Potency was inconclusive: 9.2 µM [cytotoxic, partial curve, poor fit]. In the case of `COC(=O)c1nnn(-c2nonc2N)c1CN1CCc2ccccc21`, the Potency was inconclusive: 29.1 µM [cytotoxic, single point]. For `CCn1c(SCC(N)=O)nnc1-c1ccc2[nH]c(C)c(C)c2c1`, the Potency was active: 20.6 µM. With `Cc1nc(SCC(=O)NC(C)c2ccccc2)c2oc3ccccc3c2n1` (stereo not drawn) the Potency was active: 5.17 µM. In the case of `O=S(=O)(Nc1nnc(C2CC2)s1)c1ccccc1`, the Potency was “inactive”. In the case of `COc1ccc(C2C(C(N)=O)=C(C)Nc3nc(-c4ccccc4Cl)nn32)cc1` (stereo not drawn), the Potency was inconclusive: 29.1 µM [rising, single point]. In the case of `COc1ccc(Cl)cc1-c1nc(SCC(=O)NC(C)C)n[nH]1`, the Potency was inconclusive: 0.326 µM [cytotoxic, full curve]. In the case of `CC(=O)c1ccc2c(c1)N(CCCN(C)C)c1ccccc1S2`, the Potency was inconclusive: 14.6 µM [cytotoxic, single point]. For `O=C(Nc1ccccc1)Nc1nnc(Cc2ccc([N+](=O)[O-])cc2)s1`, the Potency was inconclusive: 5.17 µM [cytotoxic, full curve]. With `CC(C)C(CCNC(=O)CC(Cc1ccccc1)c1ccco1)c1ccco1` (stereo not drawn) the Potency was inconclusive: 23.1 µM [cytotoxic, single point].
Potency is the fitted concentration of half-maximal effect.
